The assay deals with T1, biotinylated PAR1 peptide (biotin-31…58-FITC) (human).
T1 sequence (peptide, biotin on the N-terminus; FITC on the C-terminus): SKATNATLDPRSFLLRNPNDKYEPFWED
Kind of assay: SPR; ProteOn XPR36; biotinylated PAR1 peptide immobilised on an NLC chip via NeutrAvidin-biotin (2600 RU); KLK4 variants flowed over in PBST at 30 µL/min for 818 s, dissociation 30 min (166 min for KLK4 S207A,L185D); 25 °C; empty channel subtracted; 1:1 Langmuir kinetic model; both purified.

The chains behind the UniProt entries cited, without tags or fusion partners. Residues count along the entry.
UniProt Q9Y5K2, residues 31-254: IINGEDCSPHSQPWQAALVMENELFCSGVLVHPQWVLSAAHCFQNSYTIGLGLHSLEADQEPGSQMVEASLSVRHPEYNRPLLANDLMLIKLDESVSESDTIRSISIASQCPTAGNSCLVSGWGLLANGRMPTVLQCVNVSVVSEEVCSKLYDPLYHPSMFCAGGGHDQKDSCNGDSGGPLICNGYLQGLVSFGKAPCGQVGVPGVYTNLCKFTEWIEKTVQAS

These are yes or no findings as the source states them, for the method shown.

“KLK4WT (wild-type tissue kallikrein-4, activated) (from UniProt Q9Y5K2 31-254) (enzyme)”: the binding entry is reported as “no binding (tested: 100 nM)”.

Values taken from paper PMC8352894, “A KLK4 proteinase substrate capture approach to antagonize PAR1” (Scientific Reports, 2021).
